Experimental data reported in PubChem BioAssay AID2685 (National Center for Advancing Translational Sciences (NCATS), 2010).
The other results are listed elsewhere or left out. Further columns of the screen follow, without active or inactive calls. Most of these compounds were active or inconclusive in the main read-out, so they are no random draw. Words in brackets tell the shape of the fitted curve; partial curves, single points and poor fits give uncertain potencies.

Experiment: qHTS Assay for Lipid Storage Modulators in Drosophila S3 Cells;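 on cell number change: cells counted by Cell Tracker Red CMTPX staining in the red channel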
Details: BODIPY lipid droplet fluorescence, 18-24 h; for cell number change: measured here: cell count max response, cells fed with added oleic acid
Procedure, shortened: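 Drosophila S3 cells loaded with oleic acid (400 uM, as added) and compounds at several concentrations; lipid droplets imaged by 488-nm laser-scanning cytometry, 500–530 nm intensity and object ratio to cell channel. Percent activity normalized to 20 uM Triacsin C.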

[1] = measured here: lipid fluorescence (Fed channel) AC50, cells fed with added oleic acid
[2] = measured here: cell number channel AC50, cells fed with added oleic acid

Row | Compound | AC50 [1] | cell number change | AC50 [2]
1 | CCn1nc(C)c(/C=N/NC(=O)Cc2ccc(Cl)cc2)c1C | 2.31 µM [rising, single point] | – | –
2 | CCc1nnc(SCc2ccc(OC)c(Br)c2)n1N | 23.1 µM [falling, partial curve, poor fit] | -44.5% | 29.1 µM [falling, single point]
3 | CC(OC(=O)Cc1c(F)cccc1Cl)C(=O)NC1(C#N)CCCCC1 (configuration not stated) | 23.1 µM [falling, single point] | 2.55% | –
4 | COc1ccc2c(c1)N(C)C(=O)CC(c1ccccc1)=N2 | 0.651 µM [rising, partial curve] | 10.1% | –
5 | CCOc1ccc(C(C)=O)cc1COC(=O)CN1C(=O)NC2(CCCC2)C1=O | 20.6 µM [falling, single point] | -17.5% | –
6 | Cn1c(SCC(=O)Nc2ccc(Cl)cc2)nnc1C1CC1 | 0.0651 µM [falling, full curve] | -4.58% | –
7 | CC(C)(C)CC(C)(C)c1ccc(OCCOCC[N+](C)(C)Cc2ccccc2)cc1 | – | -82.9% | 16.4 µM [falling, partial curve]
8 | Cc1ccc([C@H]2C(C#N)=C(N)Oc3cc(C)oc(=O)c32)o1 | 0.517 µM [rising, single point] | -0.221% | –
9 | CN(C)c1cccc(C(=O)N(Cc2ccccc2)Cc2ccccc2)c1 | 6.51 µM [falling, partial curve] | 7.02% | –
10 | O=S(=O)(N/N=C\C=C\c1ccccc1)c1ccc(Br)cc1 | 23.1 µM [falling, partial curve] | -56% | 23.1 µM [falling, partial curve]
11 | CC(C)(C)OC(=O)N[C@@H](Cc1ccccc1)C(=O)N1CCC(C(=O)N[C@@H](CCC(N)=O)C(=O)O)CC1 | 6.51 µM [falling, single point] | 56.9% | 29.1 µM [rising, single point]
12 | CCOc1ccc(S(=O)(=O)NCc2ccc3c(c2)OCO3)cc1 | 29.1 µM [rising, single point] | 20.8% | –
13 | Cc1ccc(C(=O)NNC(=O)c2n[nH]c(=O)c3ccccc23)cc1C | 13 µM [rising, partial curve] | 5.97% | –
14 | Cn1c(=O)c2c(ncn2CC(COCc2ccc(Cl)cc2)OCc2ccc(Cl)cc2)n(C)c1=O (configuration not stated) | 5.17 µM [rising, single point] | -24.2% | –
15 | COc1ccc(NC(=O)CCN2C(=O)c3ccc([N+](=O)[O-])cc3C2=O)c(OC)c1 | 32.6 µM [falling, single point] | 5.8% | –
16 | CC1CCCC(C)N1C(=O)COC(=O)c1nn(C)c(=O)c2ccccc12 (configuration not stated) | 7.31 µM [falling, partial curve] | -7.92% | –
17 | O=S(=O)(c1cc(Cl)c(Cl)cc1Cl)N1CCN2CCCC2C1 (configuration not stated) | 0.00461 µM [rising, full curve] | 10.8% | –
18 | Cc1ccccc1NC(=O)CN1C(=O)CSc2ccc(S(=O)(=O)N3CCCC3)cc21 | – | 29.6% | 0.146 µM [rising, full curve, poor fit]
19 | COC(=O)c1ccc(Oc2nc(N3CCCCC3)nc(N3CCOCC3)n2)cc1 | – | 107% | 18.4 µM [rising, partial curve]
20 | CCn1ncc(Br)c1C(=O)Nc1ccc(C(C)C)cc1 | – | -37.4% | 20.6 µM [falling, single point]

Row | Compound | AC50 [1] | cell number change | AC50 [2]
21 | CCC1(C)Cc2c(C#N)c(N)n(N)c(=S)c2CO1 (configuration not stated) | – | 29.5% | –
22 | C=CCNc1nc(Cl)nc(Nc2ccc([N+](=O)[O-])cc2)n1 | – | -40.8% | –
23 | COc1ccc(-c2nnc3ccc(SCC(=O)N4CCOCC4)nn23)cc1 | 3.66 µM [rising, partial curve] | – | –
24 | Cc1ccsc1/C=N\NC(=O)CCc1c(C)n[nH]c1C | – | -43.4% | 29.1 µM [falling, single point]
25 | CC#CCN(CC#CC)S(=O)(=O)c1ccc(-n2cnnn2)c(OC)c1 | 0.82 µM [rising, partial curve] | -2.11% | –
26 | COc1ccc(N2CCN(C(=O)COC(=O)CNC(=O)c3ccc(C)cc3)CC2)cc1 | 16.4 µM [falling, partial curve, poor fit] | -1.68% | –
27 | CC(C)(C)c1ccc(C(=O)N2CCN(S(=O)(=O)c3ccc(Br)s3)CC2)cc1 | 18.4 µM [falling, single point] | -24.5% | –
28 | CCc1ccccc1NCC(=O)Nc1ccc(Cl)c(C(F)(F)F)c1 | 29.1 µM [falling, single point] | -79.5% | 23.1 µM [falling, single point]
29 | CC(C)Oc1cccc(C(=O)C2CCCN(C(=O)c3ccccn3)C2)c1 (configuration not stated) | 0.116 µM [rising, full curve] | 1.83% | –
30 | CCN(CC)CCn1c(=S)[nH]c2ncccc2c1=O | 3.66 µM [falling, full curve] | -25.6% | 0.092 µM [falling, full curve, poor fit]
31 | COc1cccc(-c2nc(CS(=O)CC(=O)NC3CCCC3)c(C)o2)c1 (configuration not stated) | 0.103 µM [rising, full curve, poor fit] | 34.7% | 2.06 µM [falling, partial curve]
32 | CCOc1ccc(CCNC(=O)C2CC(=O)N(c3ccccc3OCC)C2)cc1OCC (configuration not stated) | 5.8 µM [rising, partial curve] | -15.7% | –
33 | O=C(Nc1cccc(C(F)(F)F)c1)c1cc[n+]([O-])cc1 | 0.146 µM [rising, full curve, poor fit] | 12.5% | –
34 | CCC(=O)Nc1cc(-c2nc3ncccc3o2)ccc1Cl | – | -6.76% | –
35 | COc1ccccc1NC(=O)c1ccccc1C(=O)Nc1ccccc1OC | – | 10.9% | 0.116 µM [rising, full curve, poor fit]
36 | CCN(C(=O)c1ccccc1Cl)c1ccccc1 | 0.146 µM [falling, full curve, poor fit] | – | –
37 | COc1ccc(C(=O)OC/C(O)=C(\C#N)c2nc3ccccc3[nH]2)cc1S(=O)(=O)N1CCOCC1 | 29.1 µM [rising, single point] | 32.1% | 14.6 µM [rising, partial curve]
38 | CCN(C(=O)CSc1nnc(-c2ccccc2Br)o1)C1CCS(=O)(=O)C1 (configuration not stated) | 0.231 µM [falling, partial curve, poor fit] | -7.13% | 0.206 µM [falling, partial curve, poor fit]
39 | Cc1cc(C)nc(SCCC(=O)Nc2ccc(F)cc2)n1 | 16.4 µM [falling, partial curve] | 6.92% | –
40 | COCCCn1c(SCc2ccccc2)nc2cc(OC)c(OC)cc2c1=N | 29.1 µM [falling, single point] | -25.9% | –

Row | Compound | AC50 [1] | cell number change | AC50 [2]
41 | CCCCNC(=O)NC12CC3CC(CC(C3)C1)C2 | 6.51 µM [rising, single point] | 2.94% | –
42 | CC(C)Cc1ccc(C(=O)NCc2ccc3c(c2)OCO3)o1 | 16.4 µM [rising, partial curve] | 29.1% | –
43 | Cc1cc(NC(=O)CSc2nnc(-c3c[nH]c4ccccc34)n2C)no1 | 20.6 µM [falling, single point] | -14.3% | –
44 | O=C1CN(c2nc(-c3ccccc3)c3ccccc3n2)c2ccccc2N1 | 2.31 µM [rising, single point] | 2.38% | –
45 | Cc1ccc(S(=O)(=O)N2CCOCC(=O)NCCOCCNC(=O)COCC2)cc1 | 0.82 µM [rising, full curve] | 12.6% | –
46 | Cn1c(=O)c2c(n(C)c1=O)=NC1(CCCCC1)ON=2 | 3.26 µM [falling, partial curve] | -17.9% | –
47 | O=C(Nc1ccc(S(=O)(=O)Nc2ccccn2)cc1)c1cccc(Cl)c1 | – | 19.2% | –
48 | O=C1CC(c2ccccc2Cl)=NN(c2ncnc3ccccc23)C1=O | 7.31 µM [falling, partial curve, poor fit] | -44.6% | –
49 | CCOc1ccccc1NC(=O)C(Sc1nnnn1C)c1ccccc1 (configuration not stated) | 0.13 µM [falling, single point] | – | –
50 | Cn1c(C(=O)O)c(CC(=O)NCC2COc3ccccc3O2)c2ccccc21 (configuration not stated) | – | -7.13% | 6.51 µM [rising, single point]
51 | Cc1nn(S(=O)(=O)c2cccs2)c(C)c1Sc1ccccc1 | – | -54.3% | 1.64 µM [falling, partial curve]
52 | Cc1ccccc1C(=O)OC1OC(=O)C(Cl)=C1Nc1ccccc1 (configuration not stated) | 29.1 µM [falling, single point] | 21.1% | –
53 | CC(C)[C@H](NC(=O)c1ccco1)C(=O)N(C)Cc1ccc(C(F)(F)F)cc1 | 29.1 µM [rising, partial curve, poor fit] | -1.3% | –
54 | COc1cc(/C=C/C(=O)c2ccc3c(c2)OCO3)cc(Cl)c1O | – | -89.5% | 20.6 µM [falling, partial curve]
55 | CCN(CC)c1ccc(/C=C/c2cc(-c3ccccc3)c3ccccc3n2)cc1 | 23.1 µM [falling, partial curve] | -45.8% | 32.6 µM [falling, single point]
56 | CCc1nnc(NC(=O)C2CCCN(S(=O)(=O)c3ccc(OC)cc3)C2)s1 (configuration not stated) | 2.31 µM [falling, partial curve, poor fit] | -18.9% | –
57 | CN(C)/C=N/c1c(C#N)cnn1-c1nc2ccccc2s1 | 4.61 µM [rising, partial curve] | – | 3.66 µM [rising, partial curve]
58 | COc1cc(NC(=O)c2cc(CC(C)C)on2)c(OC)cc1Cl | 1.84 µM [rising, full curve] | 26.7% | –

Structural class, those above with a tert-butyl group.
Row | Compound | AC50 [1] | cell number change | AC50 [2]
7 | CC(C)(C)CC(C)(C)c1ccc(OCCOCC[N+](C)(C)Cc2ccccc2)cc1 | – | -82.9% | 16.4 µM [falling, partial curve]
11 | CC(C)(C)OC(=O)N[C@@H](Cc1ccccc1)C(=O)N1CCC(C(=O)N[C@@H](CCC(N)=O)C(=O)O)CC1 | 6.51 µM [falling, single point] | 56.9% | 29.1 µM [rising, single point]
27 | CC(C)(C)c1ccc(C(=O)N2CCN(S(=O)(=O)c3ccc(Br)s3)CC2)cc1 | 18.4 µM [falling, single point] | -24.5% | –
